Laboratory results taken from paper PMC8854749, “Celastrol Inhibits Canine Mammary Tumor Cells by Inducing Apoptosis via the Caspase Pathway” (Frontiers in Veterinary Science, 2022).
“And” between values parts separate entries of the source, which are not always exact repeats. Equal entries are not always repeated.

Tests used:
CMT-7364 cells = assay: qPCR of Caspase-3, Caspase-9, p21, p27 mRNA (2^-ΔΔCt, β-actin reference); type: cell-based, canine; details: CMT-7364, 0.9 μM celastrol, SYBR
Experimental: (§1) After CMT-7364 and CIPp cells were treated with or without 0.9 μM celastrol for 24 h, TRIzol was used to isolate the total RNA of the cells. The RNA was then reverse transcribed into cDNA using a reverse transcriptase kit. A 20 μl reaction system was prepared according to the manufacturer's instructions and tested in the Real-Time PCR System (Long Gene Q1000, China). The results were analyzed by the 2^−ΔΔCt method: ΔΔCt = (target gene Ct of the experimental group-internal reference gene Ct of the experimental group)-(target gene Ct of the control group-internal reference gene Ct of the control group), β-actin was the internal reference gene.

CIPp cells = assay: as above; type: cell-based, canine; details: 0.9 μM celastrol, SYBR
Experimental: as §1

CC1=C(O)C(=O)C=C2C1=CC=C1[C@@]2(C)CC[C@@]2(C)[C@@H]3C[C@](C)(C(=O)O)CC[C@]3(C)CC[C@]12C [celastrol, Celastrol]
Ct average, caspase-3 (CMT-7364 cells): 22.53
Ct average, caspase-9 (CMT-7364 cells): 22.29
Ct average, p-21 (CMT-7364 cells): 23.53
Ct average, p-27 (CMT-7364 cells): 25.20
Ct average, β-actin (CMT-7364 cells): 21.20
ΔCt average, p-21 (CMT-7364 cells): 2.08
ΔCt average, p-27 (CMT-7364 cells): 2.10
ΔCt average, β-actin (CMT-7364 cells): -0.90
ΔΔCt, caspase-9 (CMT-7364 cells): 0.00
ΔΔCt, p-21 (CMT-7364 cells): 0.00
ΔΔCt, p-27 (CMT-7364 cells): 0.00
ΔΔCt, β-actin (CMT-7364 cells): 0.00
Ct, caspase-3 (CMT-7364 cells; single well): 22.85 and 22.21
Ct, caspase-9 (CMT-7364 cells; single well): 22.04 and 22.53
Ct, p-21 (CMT-7364 cells; single well): 23.67 and 23.39
Ct, p-27 (CMT-7364 cells; single well): 25.00 and 25.40
Ct, β-actin (CMT-7364 cells; single well): 21.38 and 21.03
ΔΔCt, caspase-9 (CIPp cells): -0.39
ΔΔCt, p-21 (CIPp cells): -4.46
ΔΔCt, p-27 (CIPp cells): -1.36
ΔΔCt, β-actin (CIPp cells): 1.80
Ct, caspase-3 (CIPp cells; single well): 22.43 and 23.08
Ct, caspase-9 (CIPp cells; single well): 23.01 and 23.08
Ct, p-27 (CIPp cells; single well): 24.00 and 23.99
Ct, β-actin (CIPp cells; single well): 24.06 and 24.25
